Among the data in doi:10.1101/2024.11.22.622898 are binding values, retold here.

For this assay, the target named is T1, GFP-TBC1D1 (human) (UniProt Q86TI0).
T1 sequence: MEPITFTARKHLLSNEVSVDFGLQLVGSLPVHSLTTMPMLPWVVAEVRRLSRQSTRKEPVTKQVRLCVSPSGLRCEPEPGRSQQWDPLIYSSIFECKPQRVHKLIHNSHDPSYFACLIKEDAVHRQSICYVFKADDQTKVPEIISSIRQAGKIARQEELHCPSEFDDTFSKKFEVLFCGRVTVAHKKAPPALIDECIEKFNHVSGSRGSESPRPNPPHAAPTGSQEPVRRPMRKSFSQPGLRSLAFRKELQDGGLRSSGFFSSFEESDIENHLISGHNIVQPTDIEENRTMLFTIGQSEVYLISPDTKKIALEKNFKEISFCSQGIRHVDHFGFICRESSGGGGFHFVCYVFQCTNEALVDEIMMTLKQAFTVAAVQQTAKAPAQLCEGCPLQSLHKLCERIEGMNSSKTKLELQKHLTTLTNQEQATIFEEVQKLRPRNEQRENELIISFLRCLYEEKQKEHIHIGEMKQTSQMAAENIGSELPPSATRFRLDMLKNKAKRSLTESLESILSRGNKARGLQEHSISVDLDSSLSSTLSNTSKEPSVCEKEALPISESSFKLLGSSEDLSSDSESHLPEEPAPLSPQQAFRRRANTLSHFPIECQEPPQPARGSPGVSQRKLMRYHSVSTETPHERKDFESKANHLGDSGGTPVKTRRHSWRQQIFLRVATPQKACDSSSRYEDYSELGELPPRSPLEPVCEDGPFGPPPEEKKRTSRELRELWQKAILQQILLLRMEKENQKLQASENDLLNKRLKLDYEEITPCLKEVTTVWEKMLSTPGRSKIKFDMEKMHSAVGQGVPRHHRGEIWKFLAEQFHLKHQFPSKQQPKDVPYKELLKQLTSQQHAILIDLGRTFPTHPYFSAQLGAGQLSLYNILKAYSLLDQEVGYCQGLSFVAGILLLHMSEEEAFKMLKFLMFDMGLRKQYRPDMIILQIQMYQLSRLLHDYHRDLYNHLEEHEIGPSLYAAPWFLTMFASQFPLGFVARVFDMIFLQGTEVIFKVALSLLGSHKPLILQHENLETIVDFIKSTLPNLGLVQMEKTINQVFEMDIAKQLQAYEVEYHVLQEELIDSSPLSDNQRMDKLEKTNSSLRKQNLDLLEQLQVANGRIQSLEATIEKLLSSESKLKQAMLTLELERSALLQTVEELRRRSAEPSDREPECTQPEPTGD
As to the kind of experiment: co-IP.

Results are given in words; binding and its absence hold for the method and conditions named. In cells and extracts the contact can be indirect. Some entries that bind do so weakly or less than the wild type. Where a sequence is shown, tags or fusion partners need not be part of it.

B1: mCherry-TBC1D4 (protein, UniProt O60343 1-1298)
chain: MEPPSCIQDEPFPHPLEPEPGVSAQPGPGKPSDKRFRLWYVGGSCLDHRTTLPMLPWLMAEIRRRSQKPEAGGCGAPAAREVILVLSAPFLRCVPAPGAGASGGTSPSATQPNPAVFIFEHKAQHISRFIHNSHDLTYFAYLIKAQPDDPESQMACHVFRATDPSQVPDVISSIRQLSKAAMKEDAKPSKDNEDAFYNSQKFEVLYCGKVTVTHKKAPSSLIDDCMEKFSLHEQQRLKIQGEQRGPDPGEDLADLEVVVPGSPGDCLPEEADGTDTHLGLPAGASQPALTSSRVCFPERILEDSGFDEQQEFRSRCSSVTGVQRRVHEGSQKSQPRRRHASAPSHVQPSDSEKNRTMLFQVGRFEINLISPDTKSVVLEKNFKDISSCSQGIKHVDHFGFICRESPEPGLSQYICYVFQCASESLVDEVMLTLKQAFSTAAALQSAKTQIKLCEACPMHSLHKLCERIEGLYPPRAKLVIQRHLSSLTDNEQADIFERVQKMKPVSDQEENELVILHLRQLCEAKQKTHVHIGEGPSTISNSTIPENATSSGRFKLDILKNKAKRSLTSSLENIFSRGANRMRGRLGSVDSFERSNSLASEKDYSPGDSPPGTPPASPPSSAWQTFPEEDSDSPQFRRRAHTFSHPPSSTKRKLNLQDGRAQGVRSPLLRQSSSEQCSNLSSVRRMYKESNSSSSLPSLHTSFSAPSFTAPSFLKSFYQNSGRLSPQYENEIRQDTASESSDGEGRKRTSSTCSNESLSVGGTSVTPRRISWRQRIFLRVASPMNKSPSAMQQQDGLDRNELLPLSPLSPTMEEEPLVVFLSGEDDPEKIEERKKSKELRSLWRKAIHQQILLLRMEKENQKLEASRDELQSRKVKLDYEEVGACQKEVLITWDKKLLNCRAKIRCDMEDIHTLLKEGVPKSRRGEIWQFLALQYRLRHRLPNKQQPPDISYKELLKQLTAQQHAILVDLGRTFPTHPYFSVQLGPGQLSLFNLLKAYSLLDKEVGYCQGISFVAGVLLLHMSEEQAFEMLKFLMYDLGFRKQYRPDMMSLQIQMYQLSRLLHDYHRDLYNHLEENEISPSLYAAPWFLTLFASQFSLGFVARVFDIIFLQGTEVIFKVALSLLSSQETLIMECESFENIVEFLKNTLPDMNTSEMEKIITQVFEMDISKQLHAYEVEYHVLQDELQESSYSCEDSETLEKLERANSQLKRQNMDLLEKLQVAHTKIQALESNLENLLTRETKMKSLIRTLEQEKMAYQKTVEQLRKLLPADALVNCDLLLRDLNCNPNNKAKIGNKP
Consider B1, for which the binding result was “binds”.
